The assay is described as follows: qHTS Assay to Find Inhibitors of Chronic Active B-Cell Receptor Signaling. The following applies: ABC-DLBCL IkBa-CBG/CBR reporter, luminescence ratio (green luciferase fused to IkBa over red control in TMD8 lymphoma cells), 4 h. A digest of the protocol:
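Cell line TMD8 (human ABC DLBCL), stably expressing tet-inducible CBG68-IkBa fusion and CBR; IMDM/0.5% FBS; cpd up to 46 uM; dox induction, 4 h, 37C/5% CO2; dual luminescence; green/red ratio; MG132 control.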

[1] abbreviates: measured here: CBR red luminescence, cell number.
[2] abbreviates: measured here: IkBa-CBG green luminescence.

The list shows a part of the results. Shown are side measurements of this screen, not its main read-out; they come without a call. Compounds called inactive in the main read-out are mostly missing here. The note in brackets gives the kind of curve behind each potency; many fits are weak.

A word on the AC50: it is the midpoint of the concentration-response curve, whichever way the signal moves. Regarding `Cc1ccccc1NC(=O)Cc1nc(COC(=O)c2ccc(S(C)(=O)=O)c([N+](=O)[O-])c2)cs1`, the concentration at half-maximal activity (AC50) was 25.9 µM [falling, single point] under setting [1] and 32.6 µM [rising, partial curve, poor fit] under setting [2].

With `COCc1cc(C)nc(SCc2ccccc2Cl)c1C#N`, the AC50 under setting [1] was 12.6 µM [rising, partial curve, poor fit].

Consider `CCn1cc(C2=NC(C(C)C)CO2)c2ccccc21` (configuration not stated), for which the AC50 under setting [1] is 8.2 µM [rising, partial curve].

Regarding `CCc1nnc(NC(=O)CN2CCN(c3ccccc3OC)CC2)s1`, the half-maximal activity concentration (AC50) under setting [1] is 1.26 µM [falling, full curve, poor fit].

As for `CCN(C(=O)c1ccc2c(Cl)c3c(nc2c1)CCC3)c1ccc(C)c(C)c1`, the half-maximal activity concentration (AC50) under setting [1] is 23.1 µM [falling, partial curve, poor fit].

Consider `CN1C(=O)C(O)(CC(=O)/C=C\c2ccc3c(c2)OCO3)c2ccccc21` (configuration not stated), for which, under setting [1], the AC50 was 25.1 µM [falling, single point].

Take `Cc1ccc(S(=O)(=O)N(CC2CO2)c2cc(Cl)ccc2Cl)cc1` (configuration not stated): the half-maximal activity concentration (AC50) under setting [1] is 8.91 µM [falling, partial curve, poor fit].

Take `O=C(NNC1CC(=O)N(c2ccccc2)C1=O)c1ccccc1Cl` (configuration not stated): under setting [1], the half-maximal activity concentration (AC50) was 0.316 µM [falling, full curve, poor fit].

In the case of `CCOC(=O)C1CCCCN1C(=O)CCc1c(C)nc2cc(-c3ccccc3)nn2c1C` (configuration not stated), the AC50 under setting [1] is 1.64 µM [falling, partial curve, poor fit].

For `CCNc1nc(NCC)n2c(SCc3nc4ccccc4c(=O)[nH]3)nnc2n1`, the AC50 under setting [1] is 29.1 µM [rising, partial curve, poor fit].

Take `COc1ccc(-c2cc(C(=O)Nc3cc(C)on3)c3ccccc3n2)c(OC)c1`: the AC50 under setting [1] was 7.94 µM [falling, partial curve, poor fit].

As for `COC(=O)c1sccc1-n1cc(C#N)c(=O)n(C)c1=O`, under setting [1], the half-maximal activity concentration (AC50) was 3.55 µM [rising, partial curve, poor fit].

For `Cc1cc(CN2CCCC(C(=O)Nc3ccc(-c4nc5ccccc5[nH]4)cc3)C2)n[nH]1` (configuration not stated), the AC50 under setting [1] was 11.2 µM [falling, partial curve].

For `O=C(NC(CSCc1ccccc1)C(=O)N/N=C/c1ccc(O)cc1O)c1ccc([N+](=O)[O-])cc1` (configuration not stated), the concentration at half-maximal activity (AC50) is 8.2 µM [falling, partial curve] under setting [1] and 20.6 µM [rising, partial curve, poor fit] under setting [2].

On to `CC(C)c1ccccc1OCC(=O)Nc1cc(S(=O)(=O)N2CCOCC2)ccc1N1CCCC1`, for which the AC50 under setting [1] was 13 µM [falling, single point].

With `CC(=O)c1c(C)[nH]c(C(=O)OCc2ccccc2)c1C`, the AC50 under setting [1] is 0.58 µM [rising, full curve].

For the compound `O=C(CSc1nccn1-c1ccccc1)NCc1ccc2c(c1)OCO2`, the concentration at half-maximal activity (AC50) under setting [1] was 16.4 µM [falling, partial curve, poor fit].

On to `CC(C)NC(NC(=O)/C=C/c1ccccc1)C(Cl)(Cl)Cl` (configuration not stated), for which, under setting [1], the concentration at half-maximal activity (AC50) is 7.94 µM [rising, partial curve, poor fit].

As for `CCOc1cc(C(=O)N(C)Cc2cc3ccccc3[nH]c2=O)cc(OCC)c1OCC`, the concentration at half-maximal activity (AC50) under setting [1] is 23.1 µM [rising, single point].

`COc1ccc(CS(=O)/C(Cl)=C(/Cl)C(=O)Nc2ccc(OC)nc2)cc1` (configuration not stated): the half-maximal activity concentration (AC50) by setting is: under setting [1], 2 µM [falling, full curve]; under setting [2], 2.51 µM [rising, full curve, poor fit].

In the case of `COc1ccccc1C(=O)Nc1ccc(-c2nnn(CC(=O)N3CCN(C(=O)c4ccco4)CC3)n2)cc1`, under setting [1], the concentration at half-maximal activity (AC50) is 1 µM [falling, partial curve, poor fit].

As for `O=C(Nc1nc(-c2ccccn2)cs1)c1ccco1`, the concentration at half-maximal activity (AC50) under setting [1] was 15.8 µM [falling, single point].

Consider `COc1ccc(-c2nc3ccccn3c2NCc2ccc3c(c2)OCO3)cc1`, for which the half-maximal activity concentration (AC50) under setting [1] is 29.1 µM [falling, single point].

On to `O=C(NNC(=O)c1cc2cc(Br)ccc2oc1=O)c1ccc(O)cc1`, for which the half-maximal activity concentration (AC50) under setting [1] was 0.891 µM [falling, full curve].

With `O=C(/C=C/Nc1cccc(C(F)(F)F)c1)c1ccc(Oc2ncccn2)cc1`, the AC50 under setting [1] was 0.631 µM [rising, full curve].

With `CCOc1ccc(C(=O)C2CCN(CC(=O)Nc3ccccc3N3CCOCC3)CC2)cc1`, the AC50 under setting [1] was 12.6 µM [rising, partial curve, poor fit].

As to `CCn1ncc(CN2CCN(Cc3cccc(OC)c3)C(CCO)C2)c1C` (configuration not stated), the AC50 under setting [1] was 35.5 µM [falling, single point].

For `Cc1nc2ccccc2n1CCOc1ccc(F)cc1`, under setting [1], the AC50 was 3.55 µM [rising, partial curve, poor fit].

In the case of `CC(OC(=O)CSc1ccccc1)C(=O)NC1CCCCC1C` (configuration not stated), the concentration at half-maximal activity (AC50) under setting [1] was 0.651 µM [falling, full curve].

With `CCN(CC)S(=O)(=O)c1cc([N+](=O)[O-])ccc1NNC(=O)Nc1ccc(F)cc1`, the half-maximal activity concentration (AC50) under setting [1] is 2.31 µM [falling, partial curve, poor fit].

Consider `CC[C@]12c3[nH]c4cc(CCC(=O)N(C)C)ccc4c3CCN1C(=O)[C@@H](CC(=O)NCc1ccco1)C[C@@H]2C(=O)N1CCN(C(=O)C2CC2)CC1`, for which the AC50 under setting [1] was 14.6 µM [rising, partial curve].

As to `O=C(NCc1ccc(Cl)cc1)c1noc2c1CCCCC2`, under setting [1], the AC50 was 6.51 µM [rising, single point].

Regarding `N/C(=N\OC(=O)CCc1ccccc1)c1ccc(Cl)cc1`, the AC50 under setting [1] was 2.51 µM [rising, full curve].

Take `O=[N+]([O-])c1cccn2cc(-c3ccc(Br)cc3)nc12`: under setting [1], the AC50 was 15.8 µM [rising, single point].

Take `COc1ccc(CCn2c(C)cc(C(=O)COC(=O)c3cnc(C)cn3)c2C)cc1`: the AC50 under setting [1] is 8.2 µM [rising, partial curve].

Consider `C/C(=N\NC(=S)Nc1c(C)cccc1C)c1ccc(O)cc1`, for which the AC50 was 20 µM [rising, single point] under setting [1] and 35.5 µM [falling, partial curve, poor fit] under setting [2].

Take `NC(=O)CCS(=O)(=O)CCN1CCCCC1`: the AC50 under setting [1] is 0.146 µM [falling, full curve, poor fit].

Consider `O=C(Cn1cc(C(=O)c2cccs2)c2ccccc21)NCc1ccc2c(c1)OCO2`, for which the half-maximal activity concentration (AC50) under setting [1] is 29.1 µM [falling, single point].

Take `CC(C)C(NC(=O)c1ccc(C(C)(C)C)cc1)C(=O)Nc1cccc(S(N)(=O)=O)c1` (configuration not stated): the AC50 under setting [1] was 6.31 µM [falling, single point].

For `CCOC(=O)C(NC(=O)Nc1ccc(Cl)cn1)(Oc1ccccc1)C(F)(F)F` (configuration not stated), the concentration at half-maximal activity (AC50) by setting is: under setting [1], 29.1 µM [rising, single point]; under setting [2], 3.66 µM [falling, partial curve, poor fit].

As to `Cc1ccc(NC(=O)Nc2ccc(F)cc2)nc1`, the concentration at half-maximal activity (AC50) under setting [1] was 29.1 µM [falling, single point].

`O=C(Cc1ccc(-n2cccc2)cc1)NCc1ccccc1Cl`: the half-maximal activity concentration (AC50) under setting [1] is 29.1 µM [rising, single point].

As to `O=C(CN1C(=O)S/C(=C\c2ccccc2)C1=O)NCCCn1ccnc1`, under setting [1], the half-maximal activity concentration (AC50) is 3.98 µM [falling, full curve].

Turning to `CC(c1ccccc1)C1CC(=O)N(C2CCCCC2)C1=O` (configuration not stated), under setting [1], the concentration at half-maximal activity (AC50) is 25.9 µM [rising, single point].

`Cn1c2ccccc2c(=O)c2ccc(C#CC3(O)CCCCC3)cc21`: the AC50 under setting [1] was 4.47 µM [falling, full curve].

Take `COc1ccc(C(=O)NCCS(=O)(=O)NC2CCCC2)cc1`: under setting [1], the AC50 was 0.326 µM [rising, partial curve, poor fit].

For the compound `Cc1cc(Cl)ccc1OCC(=O)N[C@@H](Cc1ccccc1)c1nc2ccccc2[nH]1`, the AC50 under setting [1] was 23.1 µM [rising, single point].

Take `Cc1ccc(SCCNC(=O)c2ccc(C)c(S(=O)(=O)Nc3ccccc3C)c2)cc1`: the AC50 under setting [1] was 35.5 µM [falling, single point].

With `CCS(=O)(=O)N1CCC(C(=O)N2CCc3ccccc3C2)CC1`, the AC50 under setting [1] is 0.112 µM [rising, full curve, poor fit].

As to `S=C(Nc1ccc2nsnc2c1)N1CCCC1`, under setting [1], the half-maximal activity concentration (AC50) is 31.6 µM [falling, single point].

As to `C=CCN=c1scc(C)n1/N=C/c1ccc(O)c(O)c1`, the AC50 under setting [1] is 35.5 µM [falling, single point].

In the case of `Cc1ccc(S(=O)(=O)n2nc(OC(=O)c3c(F)cccc3Cl)cc2N)cc1`, the AC50 under setting [1] is 7.94 µM [falling, partial curve, poor fit].

As to `O=[N+]([O-])c1ccc(COc2cccc(CNc3ccc(F)cc3)c2)cc1`, under setting [1], the AC50 is 29.1 µM [falling, single point].

Turning to `CCCSc1nsc(N)n1`, under setting [1], the AC50 was 23.1 µM [rising, single point].

In the case of `CN(C)c1ccc(S(=O)(=O)N2CCCCC2)cc1NC(=O)C1CSC2(C)CCC(=O)N12` (configuration not stated), under setting [1], the concentration at half-maximal activity (AC50) was 20.6 µM [rising, single point].

For the compound `CCn1cc(C(=O)Nc2ccc(F)c(F)c2)cn1`, the AC50 under setting [1] is 4.61 µM [rising, full curve, poor fit].

On to `COc1cccc(/C=C/C(=O)c2c(O)cc(C)oc2=O)c1O`, for which the AC50 under setting [1] is 32.6 µM [falling, single point].

As for `CC(OC(=O)Cc1c[nH]c2ccccc12)C(=O)Nc1ccccc1F` (configuration not stated), the half-maximal activity concentration (AC50) under setting [1] is 1.64 µM [falling, full curve].

In the case of `CC(C1CC1)N(Cc1ccccc1)C(=S)Nc1cccc(C(F)(F)F)c1` (configuration not stated), the AC50 under setting [1] is 29.1 µM [falling, single point].

Turning to `Cc1c(NC(=O)C2CCCO2)cccc1[N+](=O)[O-]` (configuration not stated), the concentration at half-maximal activity (AC50) under setting [1] was 0.731 µM [rising, full curve].

Consider `O=C(N/N=C/c1ccncc1)C1CC1(c1ccccc1)c1ccccc1` (configuration not stated), for which, under setting [1], the AC50 was 35.5 µM [falling, single point].

As to `CS(=O)(=O)N1CCCC(C(=O)NCCc2ccc(Cl)cc2)C1` (configuration not stated), the AC50 under setting [1] is 35.5 µM [falling, single point].

The values are drawn from PubChem BioAssay AID493014 (National Center for Advancing Translational Sciences (NCATS), 2011).
